Values from PubChem BioAssay AID720505 (Drosophila RNAi Screening Center, 2013).

- Aim: 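Knock-downs that reduce calcium influx once internal stores are emptied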 (primary screen)
- Cell system: Drosophila S2R+ cells
- Reagents: long dsRNA against Drosophila genes
- Challenge: thapsigargin (2 µM) in calcium-free buffer to empty internal stores, then 2 mM calcium added back
- Read-out: 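Fluo-4 signal in 384-well plates read on a FLIPR after thapsigargin (2 µM, calcium-free) store depletion and 2 mM calcium add-back; unnormalised mean endpoint per well; screen run twice, selected wells retested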
- Reading the numbers: calcium signal and retest calcium signal: higher = more calcium entry after store depletion
- Active means: 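About 1500 genes called as lowering calcium entry, by varying amounts, judged against per-plate control wells with STIM1 as positive and Rho1 as negative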
- Meaning of the calls: active = called as lowering calcium entry; inactive = not called
The screen tested about 20,000 reagents; below is a random part of those that have a named target and a result. Over the whole deposit, about 2,100 (10%) were called active. 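Raw plate signals without normalisation; calls rest on control-based scores that were not deposited; replicate 2 separates called from uncalled poorly.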 A plus sign joins genes that one reagent is predicted to hit. Reagent sequences are not shown. The record does not give: the amount of reagent, the time to read-out.

target | dsRNA | calcium signal, replicate 1 | calcium signal, replicate 2 | retest calcium signal, replicate 1 | retest calcium signal, replicate 2 | activity call
hppy | DRSC07014 | 105 | 132 | – | – | inactive
hppy | DRSC07015 | 105 | 154 | – | – | inactive
hppy | DRSC07016 | 92 | 111 | – | – | inactive
CG17768 + LSm-4 | DRSC02845 | 187 | 148 | – | – | inactive
Ldh | DRSC11198 | 106 | 83.7 | – | – | inactive
CG6765 | DRSC10706 | 101 | 89.9 | – | – | inactive
Nt5b | DRSC19976 | 161 | 148 | – | – | inactive
Nt5b | DRSC19977 | 106 | 153 | – | – | inactive
Nt5b | DRSC19978 | 78.4 | 93.4 | – | – | inactive
Nt5b | DRSC22588 | 148 | 136 | – | – | inactive
Cyp12c1 | DRSC11125 | 119 | 106 | – | – | inactive
CG5569 | DRSC04514 | 104 | 180 | – | – | inactive
CG34434 | DRSC18134 | 113 | 79.1 | – | – | inactive
CG2162 | DRSC08557 | 91.3 | 109 | – | – | inactive
TyrRII | DRSC15150 | 96.5 | 80.3 | – | – | inactive
CG31106 | DRSC14655 | 240 | 160 | – | – | inactive
Rap2l | DRSC04646 | 109 | 140 | – | – | inactive
Cp15 | DRSC11118 | 100 | 79.3 | – | – | inactive
CG43123 | DRSC05049 | 86.9 | 120 | – | – | inactive
CG2321 | DRSC15439 | 105 | 121 | – | – | inactive
CG32687 | DRSC18210 | 88 | 126 | – | – | inactive
CG32687 | DRSC18237 | 73.7 | 133 | – | – | inactive
CG8245 | DRSC04901 | 193 | 203 | 82.7 | 101 | inactive
djl | DRSC12578 | 114 | 185 | – | – | inactive
CG16753 | DRSC08489 | 74.5 | 112 | – | – | active
muskelin | DRSC07273 | 67.4 | 193 | – | – | inactive
CG34444 | DRSC06435 | 70.7 | 134 | – | – | inactive
Ugt316A1 | DRSC10376 | 83.1 | 168 | – | – | inactive
GstE8 | DRSC06678 | 151 | 91 | – | – | inactive
CG9701 | DRSC11093 | 137 | 107 | – | – | inactive
asRNA:CR42743 + CG34162 | DRSC01190 | 155 | 109 | – | – | inactive
TAF1B | DRSC16001 | 104 | 141 | – | – | inactive
asp | DRSC16903 | 147 | 267 | – | – | inactive
Crz | DRSC16615 | 96.1 | 106 | – | – | inactive
Osi6 | DRSC12128 | 103 | 118 | – | – | inactive
pHCl-1 | DRSC09401 | – | – | – | – | active
pHCl-1 | DRSC09888 | 118 | 189 | – | – | inactive
pHCl-1 | DRSC09991 | 133 | 154 | – | – | inactive
pHCl-1 | DRSC10589 | 126 | 121 | – | – | inactive
Gr9a | DRSC22506 | 100 | 168 | – | – | inactive
CG31816 | DRSC01547 | 61.8 | 119 | – | – | active
CG18473 | DRSC16381 | 69.5 | 82.3 | – | – | active
SCCRO3 | DRSC06359 | 104 | 142 | – | – | inactive
CG8155 | DRSC07084 | 110 | 122 | – | – | inactive
CG8155 | DRSC21543 | 210 | 106 | – | – | inactive
ChT | DRSC16296 | 102 | 151 | – | – | inactive
TfIIFbeta | DRSC16884 | 150 | 130 | – | – | inactive
TfIIFbeta | DRSC21447 | 101 | 70.2 | – | – | inactive
CG32161 | DRSC22128 | 71.9 | 105 | – | – | inactive
drpr | DRSC08143 | 83.1 | 60.5 | – | – | inactive
drpr | DRSC08525 | 66.4 | 118 | – | – | inactive
Ack-like | DRSC07500 | 152 | 124 | – | – | inactive
Ack-like | DRSC21845 | 80.5 | 126 | – | – | inactive
CG30203 | DRSC06690 | 142 | 160 | – | – | inactive
sax | DRSC07675 | 140 | 94.9 | – | – | inactive
Dpy-30L2 | DRSC08205 | 114 | 84.9 | – | – | inactive
nSMase | DRSC08237 | 65.8 | 97.4 | – | – | active
CG7882 | DRSC04899 | 123 | 158 | – | – | inactive
TrpA1 | DRSC10544 | 109 | 58.9 | – | – | inactive
CG4829 | DRSC19920 | 87.3 | 81.6 | – | – | active
CG18469 | DRSC21838 | 82.5 | 81.1 | – | – | inactive
RpL7-like | DRSC02836 | 69.7 | 83.1 | 82.6 | 112 | active
Blimp-1 | DRSC10496 | 92.9 | 78.6 | – | – | inactive
CG2127 | DRSC06821 | 141 | 158 | – | – | inactive
CG14537 | DRSC02395 | 73.9 | 114 | – | – | inactive
spag | DRSC04717 | 104 | 139 | – | – | inactive
CG30098 | DRSC05605 | 73.4 | 84 | – | – | active
CG11249 | DRSC11645 | 136 | 146 | – | – | inactive
CG1208 | DRSC12190 | 102 | 138 | – | – | inactive
Or45b | DRSC07488 | 153 | 184 | – | – | inactive
Xe7 | DRSC12307 | 79.7 | 167 | – | – | inactive
P5cr-2 | DRSC15889 | 125 | 152 | – | – | inactive
dco | DRSC16929 | 118 | 204 | – | – | inactive
sing + Axs | DRSC19333 | 102 | 113 | – | – | inactive
Acp62F | DRSC08136 | 79.8 | 94.3 | – | – | inactive
CG17271 | DRSC15210 | 159 | 171 | – | – | inactive
CG17271 | DRSC22629 | 126 | 213 | – | – | inactive
CG17271 | DRSC22982 | 127 | 114 | – | – | inactive
Hmt-1 | DRSC15555 | 95 | 163 | – | – | inactive
CG14074 | DRSC10079 | 122 | 148 | – | – | inactive
CG34198 | DRSC05803 | 80.7 | 102 | – | – | inactive
VAChT | DRSC16608 | 92.1 | 147 | – | – | inactive
Nbr | DRSC03166 | 113 | 90 | – | – | inactive
CG10413 | DRSC02052 | 67.8 | 86.4 | – | – | active
CG7208 | DRSC16212 | 225 | 144 | – | – | inactive
CG13312 | DRSC09983 | 93.4 | 73.8 | – | – | inactive
Cnb | DRSC08569 | 138 | 96 | – | – | inactive
CG10948 | DRSC09806 | 73.8 | 85.4 | – | – | inactive
CG42741 | DRSC04593 | 122 | 194 | – | – | inactive
CG42741 | DRSC22045 | 117 | 183 | – | – | inactive
CG14853 | DRSC14977 | 163 | 169 | 6948 | 128 | inactive
CG14853 | DRSC21528 | 173 | 79.1 | – | – | inactive
CG43058 | DRSC05434 | 65.8 | 116 | – | – | inactive
CG6733 | DRSC16103 | 174 | 134 | – | – | inactive
eIF4EHP | DRSC14265 | 105 | 132 | – | – | inactive
Nep4 | DRSC15539 | 123 | 223 | – | – | inactive
CG13085 | DRSC02189 | 162 | 87.9 | – | – | inactive
CG12589 | DRSC12215 | 111 | 99.2 | – | – | inactive
wun2 | DRSC07566 | 134 | 203 | – | – | inactive
Sfp38D | DRSC01810 | 85.5 | 6983 | – | – | inactive
Magi | DRSC04247 | 197 | 130 | – | – | inactive
Magi | DRSC04451 | 57.8 | 217 | – | – | inactive
Dhdds | DRSC17756 | 132 | 88.6 | – | – | inactive
mud | DRSC19019 | 91.2 | 180 | 6479 | 136 | inactive
Ndfip | DRSC11201 | 95.8 | 131 | – | – | inactive
Gr98d | DRSC14571 | 102 | 94.1 | – | – | inactive

Targets listed so far whose target name starts with N or n (8):
target | dsRNA | calcium signal, replicate 1 | calcium signal, replicate 2 | retest calcium signal, replicate 1 | retest calcium signal, replicate 2 | activity call
Nt5b | DRSC19976 | 161 | 148 | – | – | inactive
Nt5b | DRSC19977 | 106 | 153 | – | – | inactive
Nt5b | DRSC19978 | 78.4 | 93.4 | – | – | inactive
Nt5b | DRSC22588 | 148 | 136 | – | – | inactive
nSMase | DRSC08237 | 65.8 | 97.4 | – | – | active
Nbr | DRSC03166 | 113 | 90 | – | – | inactive
Nep4 | DRSC15539 | 123 | 223 | – | – | inactive
Ndfip | DRSC11201 | 95.8 | 131 | – | – | inactive
